Reference: paper PMC4604347, “Local regulation of the Srs2 helicase by the SUMO-like domain protein Esc2 promotes recombination at sites of stalled replication”

Protein sequences, listed by entry. Tags and fused reporters are not part of them. Lines headed by an entry give the natural chain unless they say otherwise; changes in a name come on top.
UniProt P12954: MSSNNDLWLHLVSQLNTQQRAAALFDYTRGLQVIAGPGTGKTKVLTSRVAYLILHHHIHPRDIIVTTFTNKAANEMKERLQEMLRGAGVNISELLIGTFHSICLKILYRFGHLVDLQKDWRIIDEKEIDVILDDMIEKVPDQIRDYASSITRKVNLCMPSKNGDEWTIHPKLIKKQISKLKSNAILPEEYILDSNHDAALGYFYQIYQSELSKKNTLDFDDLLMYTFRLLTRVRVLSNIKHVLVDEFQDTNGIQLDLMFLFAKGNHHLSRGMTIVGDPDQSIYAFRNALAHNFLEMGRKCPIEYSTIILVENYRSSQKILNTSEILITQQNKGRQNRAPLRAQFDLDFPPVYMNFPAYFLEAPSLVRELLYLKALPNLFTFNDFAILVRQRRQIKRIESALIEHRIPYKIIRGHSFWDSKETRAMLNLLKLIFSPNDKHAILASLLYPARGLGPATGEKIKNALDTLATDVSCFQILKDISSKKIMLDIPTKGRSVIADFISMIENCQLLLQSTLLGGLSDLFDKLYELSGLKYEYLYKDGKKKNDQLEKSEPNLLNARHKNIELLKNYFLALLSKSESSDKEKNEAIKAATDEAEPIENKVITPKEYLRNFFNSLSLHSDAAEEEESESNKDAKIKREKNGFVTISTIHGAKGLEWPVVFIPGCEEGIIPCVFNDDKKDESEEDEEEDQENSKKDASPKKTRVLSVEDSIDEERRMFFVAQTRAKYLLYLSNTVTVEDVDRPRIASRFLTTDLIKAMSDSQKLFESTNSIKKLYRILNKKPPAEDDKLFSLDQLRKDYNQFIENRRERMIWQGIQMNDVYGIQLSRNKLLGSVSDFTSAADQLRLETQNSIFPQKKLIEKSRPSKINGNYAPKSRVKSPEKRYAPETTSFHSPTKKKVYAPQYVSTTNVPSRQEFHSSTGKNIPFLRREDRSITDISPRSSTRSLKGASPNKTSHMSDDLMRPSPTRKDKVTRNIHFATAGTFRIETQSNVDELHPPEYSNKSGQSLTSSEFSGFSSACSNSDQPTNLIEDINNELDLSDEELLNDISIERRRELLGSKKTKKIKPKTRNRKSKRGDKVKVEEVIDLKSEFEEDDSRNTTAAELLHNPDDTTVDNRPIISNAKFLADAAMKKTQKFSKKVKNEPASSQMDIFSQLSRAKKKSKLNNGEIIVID
UniProt Q12050: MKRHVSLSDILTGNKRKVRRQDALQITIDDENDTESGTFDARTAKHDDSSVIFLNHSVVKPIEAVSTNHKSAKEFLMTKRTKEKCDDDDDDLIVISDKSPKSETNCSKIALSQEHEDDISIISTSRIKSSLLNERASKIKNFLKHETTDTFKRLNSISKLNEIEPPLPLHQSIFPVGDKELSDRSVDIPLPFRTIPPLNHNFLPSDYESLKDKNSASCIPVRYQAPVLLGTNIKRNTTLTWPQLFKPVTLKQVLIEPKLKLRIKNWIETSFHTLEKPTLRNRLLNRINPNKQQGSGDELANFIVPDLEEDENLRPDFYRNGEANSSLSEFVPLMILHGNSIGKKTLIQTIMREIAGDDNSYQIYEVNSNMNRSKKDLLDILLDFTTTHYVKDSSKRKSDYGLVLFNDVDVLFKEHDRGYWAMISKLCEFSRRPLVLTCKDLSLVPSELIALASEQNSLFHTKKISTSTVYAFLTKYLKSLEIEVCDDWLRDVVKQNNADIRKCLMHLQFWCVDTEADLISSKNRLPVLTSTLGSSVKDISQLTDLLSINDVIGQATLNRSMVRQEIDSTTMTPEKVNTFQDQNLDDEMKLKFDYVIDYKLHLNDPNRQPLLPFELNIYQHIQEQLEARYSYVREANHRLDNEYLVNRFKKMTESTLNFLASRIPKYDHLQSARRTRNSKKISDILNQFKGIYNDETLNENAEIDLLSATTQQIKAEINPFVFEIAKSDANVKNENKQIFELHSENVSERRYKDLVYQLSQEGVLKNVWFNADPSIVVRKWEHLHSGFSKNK

B1: Esc2-Flag (protein, UniProt Q06340 1-456)
chain: MTGDSRSISEPSINLDPDNTSFSDENSDDFFMDNSYDIDEIDHSDESNRQSVIVDSKVTVPPSKHSTLTLSDSEDSDAKEQHQSLSRSSSKNVNIEDITEPKPDKPSGRTRGRSVMKESVVEINSSESDLDEDKNFPRSRSRSRSSIRSISPAGKYKRQKSSLLYTYDENDDFFKELAKEAKKSTTISKESTPDQRKRVYNIKFLSKLEGTINKAVQVKVLGKYEFSKILPAALDGLMKSYKIPKVMKDIYKVENVTLYWNNAKLLTFMTCNSLHIPQDFENEVSDIDVTIVSKEYEKNFEATLESKLKEEEAALLIKERQEMERKLEKKRNEQEESEYREFESELKNVEETQEIKENDTVMNTKLLQEGGSLSGNSSSMEEVMRIALMGQDNKKIYVHVRRSTPFSKIAEYYRIQKQLPQKTRVKLLFDHDELDMNECIADQDMEDEDMVDVIID
B2: Slx5 (protein, UniProt P32828 1-619)
chain: MHSDTNGRTKSNNSPSDNNPNETVILIDSDKEEDASIREANLPVRLYPDRRVGRRRDALNRFVRSDSRSRNSQRTHITASSERPDFQANNDDITIIREVGRFFGDDGPIDPSAHYVDLDQEPGSETLETPRTIQVDNTNGYLNDNGNNNESDDGLTIVEERTTRPRVTLNLPGGERLEVTATTTDIPIRRSFEFQEDLGASRRQLLRRSATRARNLFVDRSDENDEDWTDDTHNLPEAIQRARRESRMRMSRRIAERQRRVQQQRVSSDENISTSIRLQSIRERIQSYTPDIRSAFHRAESLHEFRSILQNVAPITLQECEEELMALFTEFRNQLLQNWAIDRVRNTQEEALRLHREALERQERTAGRVFHRGTLRESITNYLNFNGEDGFLSRLWSGPALSDADEERHTQNIIDMIQEREERERDVVMKNLMNKTRAQQEEFEARAASLPEGYSASFDTTPKMKLDITKNGKEETIIVTDDDLAKTLEDIPVCCLCGAELGVGIPDDFTGISQKDRGVSFEGLVSKYKFHCPYQTLARPSMLDRDLSKRTFIASCGHAFCGRCFARIDNAKKKSKMPKKKLAQLKGSAHPDNYGPKLCPADSCKKLIRSRGRLKEVYF
B3: Esc2-Myc (protein, UniProt Q06340 1-456)
chain: B1 chain

How the values were obtained:
GST-Esc2 (S. cerevisiae) = target: T1, GST-Esc2 (S. cerevisiae) (UniProt Q06340); assay: pull-down; 'in vivo pull-down': purified recombinant GST-Esc2 (wild type or mutants) with total yeast cell lysate, with or without ethidium bromide; complexes on the beads analysed by protein blotting; only the target purified
T1 sequence: B1 chain

[1] = target: GST-Srs2ΔN (S. cerevisiae) (UniProt P12954); assay: pull-down; 'in vivo pull-down': purified recombinant GST-Srs2ΔN variants with total yeast cell lysate; protein blotting; only the target purified

| Molecule | binding (GST-Esc2 (S. cerevisiae)) | binding [1] |
| --- | --- | --- |
| Elg1-PIP variant (Flag-tagged) (from UniProt Q12050) | binds |  |
| B1 |  | binds |
| B2 |  | binds |
| B3 |  | binds |

These are yes or no findings as the source states them, for the method shown. Binding seen in cells or lysates may run through a third protein. A result given as binding can be weak or reduced; the word gives no strength. Sequences can lack the tags named with a protein.
